Experimental data taken from patent US20050037433A1.
Results are given in words; binding and its absence hold for the method and conditions named. Binding seen in cells or lysates may run through a third protein. Some binding calls cover weakened binding; strength is not graded here. Tags and fused reporters may be left off the sequences shown.

What was measured:
[1] = target: T1, p16-EGFP (prototypical p16, PNN1131, tagged with EGFP) (mouse); experiment: co-immunoprecipitation with anti-EGFP from co-transfected COS-7 cells, blot with anti-myc (FIG. 6)
T1 sequence: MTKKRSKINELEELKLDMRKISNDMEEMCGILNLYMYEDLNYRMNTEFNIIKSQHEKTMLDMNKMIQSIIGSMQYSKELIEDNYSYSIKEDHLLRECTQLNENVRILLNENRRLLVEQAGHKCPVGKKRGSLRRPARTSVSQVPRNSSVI

[2] = target: T1, p16-EGFP (prototypical p16, PNN1131, tagged with EGFP) (mouse); experiment: co-immunoprecipitation with anti-EGFP from co-transfected COS-7 cells, blot with anti-myc

- binding [1]: binds
- binding [2]: binds
B1: p16-myc (prototypical p16, PNN1131, tagged with myc) (protein, not shown: small tags and cut ends)
chain: MTKKRSKINELEELKLDMRKISNDMEEMCGILNLYMYEDLNYRMNTEFNIIKSQHEKTMLDMNKMIQSIIGSMQYSKELIEDNYSYSIKEDHLLRECTQLNENVRILLNENRRLLVEQAGHKCPVGKKRGSLRRPARTSVSQVPRNSSVI
